Test results as given in article PMC5359613.
Results are given in words; binding and its absence hold for the method and conditions named. Sequences can lack the tags named with a protein.

Biological target: T1, MadB of Phycomyces blakesleeanus (homolog of N. crassa WC-2) (Phycomyces blakesleeanus) (UniProt B5M9P7)
T1 sequence: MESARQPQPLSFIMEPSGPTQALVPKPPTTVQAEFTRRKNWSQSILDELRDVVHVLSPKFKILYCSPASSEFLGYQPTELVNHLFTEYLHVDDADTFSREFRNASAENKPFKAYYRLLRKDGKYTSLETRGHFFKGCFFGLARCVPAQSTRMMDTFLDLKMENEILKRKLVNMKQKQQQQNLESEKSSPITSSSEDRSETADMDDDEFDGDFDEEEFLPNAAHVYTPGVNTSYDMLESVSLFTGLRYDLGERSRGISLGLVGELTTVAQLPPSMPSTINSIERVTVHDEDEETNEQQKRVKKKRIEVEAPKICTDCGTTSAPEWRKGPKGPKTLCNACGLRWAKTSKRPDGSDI
Assay: two-hybrid; Gal4 activation domain (pGADT7) and DNA binding domain (pGBKT7) fusions co-transformed into S. cerevisiae PJ69-4A; growth on -histidine + 0.5 mM 3-amino triazole or -adenine, and β-galactosidase activity

B1: MadC protein of Phycomyces blakesleeanus (Ras GTPase activating protein) (protein, UniProt A0A1U9IW06 1-821)
chain: MAGHTHVLSDSHSRTIPSDYLANSTIVSRAMAAAAANNHHNAHAIRRGRQSHRYDVSVFYSMAAEQDIEIEDDLALAQRTLRDFKSNISAQSKKNFMLERDVRFLDSRIALLIQNRMALDEQTEVVSHLEYHDDDTEGHYPDDRKMQQYGSLFFLLQCEPRHMATLCRLVRLSEIDTLLQTVMFTLYGNQYESREEHLLLTMFQNVLAAQFETTSEFASLLRANTPVSRMMTTYTRRGPGQSYLKLVLSDRINRLIEQVDLNLQINPLKVYEELILAAEEGREEDQGLERGISAEGAAAHPQVKATIKPRLALLMETAESFLDTILGSLDKVPYGIRWICKQIRSLTRRKYPDASDSAIASLIGGFFFLRFINPAIVTPQAYMLVDNLPKNHPRAVLTLVAKLLQNLANKPAYAKESYMIPTNSFIEKNKQRINKFLNDLCEVGDFYESLEMDQYMTLSKKDIIINITPNEIYNTLALLQQHIDILAPKPTDHLRVLVSELGTALPQVARQHNKPIELPLFSRWEIPIQDLTMALMSENNITQSDITYMETKAIFVQIIRSLPYLSRPPLQLAQILETANTAKDPLLTRKGLKVTEMLDELERMGVIHRQDGYKLLVEEITQELAHLGDLKDKVVEEMGSLEGVYKTILDHNNYLKIQLESYRAYLQNVRMLSIGNTKEAVHHGHEPALAEKQVGLGVALTTGKTAKKTVKSQHLQGPFKFSHQQLEREGVIAETEVAEHRRCNIFLSVLSPLPGTFIISLHYKGRERPVLEIDLKLDDLLERQQDNVQLLDLEYMKLHVTKTLQLLTKTFMTKNKTGFFS
For B1, the binding was “no binding”.
